Measured values from publication PMC9239096.

Tests used:
Experiment in all cases: two-hybrid; Matchmaker GAL4 two-hybrid system 3, AD (pGADT7) and BD (pGBKT7) plasmids co-introduced into S. cerevisiae AH109; growth on medium lacking Trp/Leu/His and blue colour indicate interaction
[1] = molecular target: PtsN1 (EIIA^Ntr) of Sinorhizobium fredii CCBAU45436, yeast two-hybrid fusion (Sinorhizobium fredii CCBAU45436)
[2] = molecular target: PtsN1(H66A), yeast two-hybrid fusion (Sinorhizobium fredii CCBAU45436)
[3] = molecular target: PtsN1(H66E), yeast two-hybrid fusion (Sinorhizobium fredii CCBAU45436)
[4] = molecular target: PtsN2 of Sinorhizobium fredii CCBAU45436, yeast two-hybrid fusion (Sinorhizobium fredii CCBAU45436)
[5] = molecular target: PtsN3 of Sinorhizobium fredii CCBAU45436, yeast two-hybrid fusion (Sinorhizobium fredii CCBAU45436)

binding [1]: binds
binding [2]: binds
binding [3]: no binding
binding [4]: binds
binding [5]: no binding
B1: KdpD sensory kinase of Sinorhizobium fredii CCBAU45436, yeast two-hybrid fusion (protein, UniProt C3KRJ3 1-901)
chain: MPGDRPDVDTRPSPDALLENAEREARGRLKIFLGAAPGVGKTYEMLVSGRARKSEGVDVVIGIVETHGRQETQALVDGLEAIARRNVEYRGHVLDEMDLDAILARRPQLVLVDELAHTNVEGSRHSKRYLDVEEILAKGIDVYSTLNVQHIESLNDIVAQITRIRVRETVPDSIIDRADDVEIIDLTPDDLIKRLHEGKVYLPTTAKRAIANYFSPGNLTALRELALRRTAERVDDQLVSHMQAHAIPGPWAAGDRVLVCIDHGSRGAALVRYAKRQADRLRAPWSAIHVETTGSINLPDADKDRLASHLRLAEQLGGEAITIPGQSVARDILRHAAAHNFTHVVTGKPNKPRWRELIEGSVSHDLIRHAGEISVHVVSGAARAASAARGVKTAPPPKQVKLQAYLLSTLYVSIALAFSALLDQVLDVRNLALVLLIGVLTSAVTAGLGPALYACFVSALAFNFFFLEPRYTFTIRDPESVLALVFFLVVAVTASNLTARVQRQAAAARQRARTTEDLYLFAKKLASTGTLDDVLWATAHQIASMLKVRVVILLPESGSIAVKAGYPPDDTLVDADIAAARWAWENDRPAGRGADTLPGAKRLYLPLRTGRAAIGVVGLDNDRQGPLLTPEQQRLFDALADQAALAIERVQLVADVDRARLAAEADRLRSALLTSISHDLKTPLAAIMGSAGTLRDYSGAMPEEDRTDLLSTVVDESERLNRFIANLLDMTRIESGATEPNASLHDVGDVVGTALRRAAKMLARHKTAIDAPGDLPMLKLDPVLFEQVLFNLLDNAAKYAPPGSTVRIRAWVDDNSVALQVMDEGPGIPSGDLERVFDSFYRVRKGDHVRAGTGLGLSICRGFIEAMGGTIAAGNRTDRSGAVFTITMPIPVGAPNVEDLT

Results are given in words; binding and its absence hold for the method and conditions named. For some assays here: Binding calls can cover weak binding; strength is not graded here. Where a sequence is shown, tags or fusion partners need not be part of it.
